These are yes or no findings as the source states them, for the method shown. In cells and extracts the contact can be indirect. Some results given as binding are weak or reduced against the parent protein; the word gives no strength.

By UniProt entry, the sequences of proteins in these tests, tags left out.
UniProt P13202: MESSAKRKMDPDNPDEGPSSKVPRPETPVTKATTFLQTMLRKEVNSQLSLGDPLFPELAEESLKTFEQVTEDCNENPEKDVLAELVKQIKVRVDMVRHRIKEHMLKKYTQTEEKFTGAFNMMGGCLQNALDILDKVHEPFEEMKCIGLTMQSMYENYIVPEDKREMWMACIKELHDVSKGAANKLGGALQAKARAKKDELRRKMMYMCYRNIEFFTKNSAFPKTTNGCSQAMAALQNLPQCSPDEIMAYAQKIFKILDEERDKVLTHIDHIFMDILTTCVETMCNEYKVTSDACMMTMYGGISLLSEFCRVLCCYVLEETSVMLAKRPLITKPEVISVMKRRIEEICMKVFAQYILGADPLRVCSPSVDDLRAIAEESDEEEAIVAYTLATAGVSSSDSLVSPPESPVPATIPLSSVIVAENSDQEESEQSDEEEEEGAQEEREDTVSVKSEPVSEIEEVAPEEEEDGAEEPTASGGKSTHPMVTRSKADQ

The source of these data is publication PMC3917433.

B1: TRIM33 (protein, UniProt Q9UPN9 1-1127)
chain: MAENKGGGEAESGGGGSGSAPVTAGAAGPAAQEAEPPLTAVLVEEEEEEGGRAGAEGGAAGPDDGGVAAASSGSAQAASSPAASVGTGVAGGAVSTPAPAPASAPAPGPSAGPPPGPPASLLDTCAVCQQSLQSRREAEPKLLPCLHSFCLRCLPEPERQLSVPIPGGSNGDIQQVGVIRCPVCRQECRQIDLVDNYFVKDTSEAPSSSDEKSEQVCTSCEDNASAVGFCVECGEWLCKTCIEAHQRVKFTKDHLIRKKEDVSESVGASGQRPVFCPVHKQEQLKLFCETCDRLTCRDCQLLEHKEHRYQFLEEAFQNQKGAIENLLAKLLEKKNYVHFAATQVQNRIKEVNETNKRVEQEIKVAIFTLINEINKKGKSLLQQLENVTKERQMKLLQQQNDITGLSRQVKHVMNFTNWAIASGSSTALLYSKRLITFQLRHILKARCDPVPAANGAIRFHCDPTFWAKNVVNLGNLVIESKPAPGYTPNVVVGQVPPGTNHISKTPGQINLAQLRLQHMQQQVYAQKHQQLQQMRMQQPPAPVPTTTTTTQQHPRQAAPQMLQQQPPRLISVQTMQRGNMNCGAFQAHQMRLAQNAARIPGIPRHSGPQYSMMQPHLQRQHSNPGHAGPFPVVSVHNTTINPTSPTTATMANANRGPTSPSVTAIELIPSVTNPENLPSLPDIPPIQLEDAGSSSLDNLLSRYISGSHLPPQPTSTMNPSPGPSALSPGSSGLSNSHTPVRPPSTSSTGSRGSCGSSGRTAEKTSLSFKSDQVKVKQEPGTEDEICSFSGGVKQEKTEDGRRSACMLSSPESSLTPPLSTNLHLESELDALASLENHVKIEPADMNESCKQSGLSSLVNGKSPIRSLMHRSARIGGDGNNKDDDPNEDWCAVCQNGGDLLCCEKCPKVFHLTCHVPTLLSFPSGDWICTFCRDIGKPEVEYDCDNLQHSKKGKTAQGLSPVDQRKCERLLLYLYCHELSIEFQEPVPASIPNYYKIIKKPMDLSTVKKKLQKKHSQHYQIPDDFVADVRLIFKNCERFNEMMKVVQVYADTQEINLKADSEVAQAGKAVALYFEDKLTEIYSDRTFAPLPEFEQEEDDGEVTEDSDEDFIQPRRKRLKSDERPVHIK
B2: SC35 (protein, UniProt Q01130 1-221)
chain: MSYGRPPPDVEGMTSLKVDNLTYRTSPDTLRRVFEKYGRVGDVYIPRDRYTKESRGFAFVRFHDKRDAEDAMDAMDGAVLDGRELRVQMARYGRPPDSHHSRRGPPPRRYGGGGYGRRSRSPRRRRRSRSRSRSRSRSRSRSRYSRSKSRSRTRSRSRSTSKSRSARRSKSKSSSVSRSRSRSRSRSRSRSPPPVSKRESKSRSRSKSPPKSPEEEGAVSS
B3: HDAC10 (protein, UniProt Q969S8 1-669)
chain: MGTALVYHEDMTATRLLWDDPECEIERPERLTAALDRLRQRGLEQRCLRLSAREASEEELGLVHSPEYVSLVRETQVLGKEELQALSGQFDAIYFHPSTFHCARLAAGAGLQLVDAVLTGAVQNGLALVRPPGHHGQRAAANGFCVFNNVAIAAAHAKQKHGLHRILVVDWDVHHGQGIQYLFEDDPSVLYFSWHRYEHGRFWPFLRESDADAVGRGQGLGFTVNLPWNQVGMGNADYVAAFLHLLLPLAFEFDPELVLVSAGFDSAIGDPEGQMQATPECFAHLTQLLQVLAGGRVCAVLEGGYHLESLAESVCMTVQTLLGDPAPPLSGPMAPCQSALESIQSARAAQAPHWKSLQQQDVTAVPMSPSSHSPEGRPPPLLPGGPVCKAAASAPSSLLDQPCLCPAPSVRTAVALTTPDITLVLPPDVIQQEASALREETEAWARPHESLAREEALTALGKLLYLLDGMLDGQVNSGIAATPASAAAATLDVAVRRGLSHGAQRLLCVALGQLDRPPDLAHDGRSLWLNIRGKEAAALSMFHVSTPLPVMTGGFLSCILGLVLPLAYGFQPDLVLVALGPGHGLQGPHAALLAAMLRGLAGGRVLALLEENSTPQLAGILARVLNGEAPPSLGPSSVASPEDVQALMYLRGQLEPQWKMLQCHPHLVA

This test has as its target Human cytomegalovirus immediate-early protein 1 (human cytomegalovirus (HCMV)) (UniProt P13202). In words: co-IP.
Take B1: the binding result is reported as “binds”.
As for B2, the entry is “binds”.
For B3, the binding entry is on record as “binds”.
